Measured values: PMC9691770
Construct, isoform or probe ends are uncertain for at least one entry. For part of these data: No signal at the amounts used counts as a negative. At least one verdict rests on a figure or table, not on a statement of the authors.

Tested on: GST-MaAP2a-R2
Assay: EMSA
Details: Chemiluminescent EMSA Kit (Beyotime) per manual; pH and temperature not stated; recombinant protein; protein details: N-terminal GST (pGEX-4T-1); label: biotin 3' end

**Q.** Does “CACGATATAATCCACAAGGCCTAGAACAAAGGCAACACTAAGAACACCGAACTGGAACA (double strand) [MapGlcT2-1 probe]” bind?
**A.** Result: binds

**Q.** Does “TCTTTCTATTATTTCTTTCTAAAACATTTGTTTCCTTCGATTTTCTTATTCGGTTCTCT (double strand) [MaMEX2 probe]” bind?
**A.** Result: binds

**Q.** Does “CTATGCTAACTCAATTAGAAGCTCATTGAGTTTGTTCTGGGATTGAGTTGGGCTCGTTA (double strand) [MaSEX4 probe]” bind?
**A.** Result: binds

**Q.** Does “TTTTTGTGGTGTATGGTGACTTGTTATTTTGTTTCTTTTCATGTAGATATCTGTTTATA (double strand) [MaAMY3A probe]” bind?
**A.** Result: binds

**Q.** Does “GATTTGCAATATCTGAGAAATGCTTTATTTTGTTGCTTTGGCTGTCCAGGGACATTGTG (double strand) [MaPWD1 probe]” bind?
**A.** Result: binds

**Q.** Does “ACATAGATATTTTTTTCCGCTCATGAGAGGGCGGCGGCGCGCACTACTGGACGTTAGGT (double strand) [MaLSF1 probe]” bind?
**A.** Result: binds

**Q.** Does “CCTTGCGCTCCAATCGAACGGGACCGGCGGCTTGGTCATTGATTCCGGCACCACCTTT (double strand) [MaBAM2 probe]” bind?
**A.** Result: binds

**Q.** Does “ATGGTGTGTGGCCGCCATCATTCTCTCCCAAGCAACCACGTGTAAACAAAAATATCACG (double strand) [MaGWD1 probe]” bind?
**A.** Result: binds

**Q.** Does “TACGTATATGTGTTGTGTATAATGGATTTGTTTGTAGATTGGATCTCCTCCAAGCTTTG (double strand) [MaMEX1 probe]” bind?
**A.** Result: binds

**Q.** Does “CGACATCACCTCTCTCTCTCTCGCTTTTTGTTCTTTTCATCATATTCGAATTCATTGGC (double strand) [MaAMY2C probe]” bind?
**A.** Result: binds

**Q.** Does “TTAGCACCGGCCGCGCTCCCTTTCCCGGTTTGTTCGGCGACGCGGGGGGAAGGGAGACC (double strand) [MapGlcT2-2 probe]” bind?
**A.** Result: binds

**Q.** Does “ACAAATAAATTATGGTGCCATGTTTATTTGTTTTTTTACAGGATAAATAATAAAGACGA (double strand) [MaAMY3C probe]” bind?
**A.** Result: binds

**Q.** Does “AAGGAAAAAAGAATCTAGAAAACAACAAACCCTAAGTCTCTTGAGAGTTTGGGGGTTCT (double strand) [MaBAM3 probe]” bind?
**A.** Result: binds

**Q.** Does “ACCAAAAAGAAGTTCCTTGTTTTGTCTTTTTGTTGGCTAAATCTTTTGCATCTTTAGTT (double strand) [MaAMY2B probe]” bind?
**A.** Result: binds

**Q.** Does “TACCCCCCGCCTCCGGCCGCCGCCGGCACCCGTCTGCCCGCCGCCGACGCTGCCCGAG (double strand) [MaBAM1 probe]” bind?
**A.** Result: binds

Tested on: GST-MaAP2a-R2
Assay: competition with a labelled probe
Details: Chemiluminescent EMSA Kit (Beyotime) per manual; pH and temperature not stated; recombinant protein; protein details: N-terminal GST (pGEX-4T-1)

**Q.** Does “ACCAAAAAGAAGTTCCTTGTTTTGTCTTTGTGTGGGCTAAATCTTTTGCATCTTTAGTT (double strand) [MaAMY2B mprobe]” bind?
**A.** Result: no binding

**Q.** Does “ATGGTGTGTGAAAAAAATCATTCTCTCCCAAGCAACCACGTGTACACACAAATATCACG (double strand) [MaGWD1 mprobe]” bind?
**A.** Result: no binding

**Q.** Does “ACATAGATATTTTTTTCCGCTCATGAGAGTTTTTTGGCGCGCACTACTGGACGTTAGGT / ACCTAACGTCCAGTAGTGCGCAAAAAAGCCCTCTCATGAGCGGAAAAAAATATCTATGT [MaLSF1 mprobe]” bind?
**A.** Result: no binding

**Q.** Does “TCTTTCTATTATTTCTTTCTAAAACATGTGTGTCCTTCGATTTTCTTATTCGGTTCTCT (double strand) [MaMEX2 mprobe]” bind?
**A.** Result: no binding

**Q.** Does “CACGATATAATCCACAAGGCCTAGCACACAGGCAACACTAAGAACACCGAACTGGAACA (double strand) [MapGlcT2-1 mprobe]” bind?
**A.** Result: no binding

**Q.** Does “AAGGAAAAAAGAATCTAGAAAACCACACACCCTAAGTCTCTTGAGAGTTTGGGGGTTCT (double strand) [MaBAM3 mprobe]” bind?
**A.** Result: no binding

**Q.** Does “GATTTGCAATATCTGAGAAATGCTTTATTGTGTGGCTTTGGCTGTCCAGGGACATTGTG (double strand) [MaPWD1 mprobe]” bind?
**A.** Result: no binding

**Q.** Does “TTAGCACCGGCCGCGCTCCCTTTCCCGGTGTGTGCGGCGACGCGGGGGGAAGGGAGACC (double strand) [MapGlcT2-2 mprobe]” bind?
**A.** Result: no binding

**Q.** Does “TTTTTGTGGTGTATGGTGACTTGTTATTGTGTGTCTTTTCATGTAGATATCTGTTTATA (double strand) [MaAMY3A mprobe]” bind?
**A.** Result: no binding

**Q.** Does “CTATGCTAACTCAATTAGAAGCTCATTGAGTGTGTGCTGGGATTGAGTTGGGCTCGTTA (double strand) [MaSEX4 mprobe]” bind?
**A.** Result: no binding

**Q.** Does “TACCCCCCGCCTCCGAAAAAAGCCGGCACCCGTCTGCCCAAAAAAGACGCTGCCCGAG / CTCGGGCAGCGTCTTTTTTGGGCAGACGGGTGCCTTTTTTGGCCGGAGGCGGGGGGTA [MaBAM1 mprobe]” bind?
**A.** Result: no binding

**Q.** Does “CGACATCACCTCTCTCTCTCTCGCTTTGTGTGCTTTTCATCATATTCGAATTCATTGGC (double strand) [MaAMY2C mprobe]” bind?
**A.** Result: no binding

**Q.** Does “ACAAATAAATTATGGTGCCATGTTTATGTGTGTTTTTACAGGATAAATAATAAAGACGA (double strand) [MaAMY3C mprobe]” bind?
**A.** Result: no binding

**Q.** Does “TACGTATATGTGTTGTGTATAATGGATGTGTGTGTAGATTGGATCTCCTCCAAGCTTTG (double strand) [MaMEX1 mprobe]” bind?
**A.** Result: no binding

**Q.** Does “CCTTGCGCTCCAATCGAACGGGACCTTTTTTTTGGTCATTGATTCCGGCACCACCTTT (double strand) [MaBAM2 mprobe]” bind?
**A.** Result: no binding
